Amino acid sequences for entries named in this document (tags omitted). A change or cut given only in a name is not applied to a line headed by its entry.
UniProt O95819: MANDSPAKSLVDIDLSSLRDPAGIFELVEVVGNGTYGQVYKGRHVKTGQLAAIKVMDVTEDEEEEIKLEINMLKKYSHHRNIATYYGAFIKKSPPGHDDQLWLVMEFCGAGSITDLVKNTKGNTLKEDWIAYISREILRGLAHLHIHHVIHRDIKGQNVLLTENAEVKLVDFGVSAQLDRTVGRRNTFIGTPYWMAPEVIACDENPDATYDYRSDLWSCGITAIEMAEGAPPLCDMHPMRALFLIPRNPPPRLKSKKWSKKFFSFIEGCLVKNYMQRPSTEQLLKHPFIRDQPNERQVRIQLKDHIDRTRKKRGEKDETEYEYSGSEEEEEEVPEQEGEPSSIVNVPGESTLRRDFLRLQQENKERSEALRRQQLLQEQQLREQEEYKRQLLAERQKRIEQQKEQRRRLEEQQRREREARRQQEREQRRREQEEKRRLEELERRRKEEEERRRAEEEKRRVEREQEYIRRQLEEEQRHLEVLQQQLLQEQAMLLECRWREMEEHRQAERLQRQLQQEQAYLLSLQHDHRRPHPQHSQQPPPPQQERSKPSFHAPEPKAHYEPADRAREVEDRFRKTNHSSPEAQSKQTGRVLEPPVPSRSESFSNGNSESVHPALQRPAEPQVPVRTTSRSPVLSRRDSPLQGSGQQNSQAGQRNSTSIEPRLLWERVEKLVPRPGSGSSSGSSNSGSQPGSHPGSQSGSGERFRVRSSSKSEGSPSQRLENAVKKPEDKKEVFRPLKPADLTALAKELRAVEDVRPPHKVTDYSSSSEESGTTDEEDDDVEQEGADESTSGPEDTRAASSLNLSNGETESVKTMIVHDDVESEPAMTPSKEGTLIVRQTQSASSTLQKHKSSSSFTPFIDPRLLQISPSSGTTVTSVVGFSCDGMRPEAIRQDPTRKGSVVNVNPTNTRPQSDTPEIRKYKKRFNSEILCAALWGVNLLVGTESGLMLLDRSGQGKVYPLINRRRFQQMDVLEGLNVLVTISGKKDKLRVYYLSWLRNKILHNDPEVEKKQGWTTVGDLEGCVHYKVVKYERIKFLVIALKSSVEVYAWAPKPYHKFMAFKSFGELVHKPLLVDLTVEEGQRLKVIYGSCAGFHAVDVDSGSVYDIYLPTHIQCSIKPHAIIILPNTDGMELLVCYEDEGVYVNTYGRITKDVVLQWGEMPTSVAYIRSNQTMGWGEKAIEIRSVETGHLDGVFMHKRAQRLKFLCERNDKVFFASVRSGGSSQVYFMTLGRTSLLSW
UniProt Q9Y2U5: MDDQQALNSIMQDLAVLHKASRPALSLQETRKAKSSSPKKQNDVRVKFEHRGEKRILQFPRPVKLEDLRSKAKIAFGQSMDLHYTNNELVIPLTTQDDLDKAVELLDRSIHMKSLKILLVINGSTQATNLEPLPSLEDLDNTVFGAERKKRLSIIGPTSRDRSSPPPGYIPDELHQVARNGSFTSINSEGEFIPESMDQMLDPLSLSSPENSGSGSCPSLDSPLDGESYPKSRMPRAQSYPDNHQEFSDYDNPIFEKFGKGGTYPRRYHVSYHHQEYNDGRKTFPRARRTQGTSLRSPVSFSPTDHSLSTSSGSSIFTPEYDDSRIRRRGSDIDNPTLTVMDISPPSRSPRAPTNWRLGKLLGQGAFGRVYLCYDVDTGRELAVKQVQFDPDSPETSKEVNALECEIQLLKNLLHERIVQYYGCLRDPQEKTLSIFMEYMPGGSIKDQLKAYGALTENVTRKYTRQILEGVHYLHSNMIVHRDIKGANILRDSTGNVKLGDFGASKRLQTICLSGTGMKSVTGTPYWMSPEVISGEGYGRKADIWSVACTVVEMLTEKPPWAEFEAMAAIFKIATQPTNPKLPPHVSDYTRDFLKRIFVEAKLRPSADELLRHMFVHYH
UniProt Q9Y2E5: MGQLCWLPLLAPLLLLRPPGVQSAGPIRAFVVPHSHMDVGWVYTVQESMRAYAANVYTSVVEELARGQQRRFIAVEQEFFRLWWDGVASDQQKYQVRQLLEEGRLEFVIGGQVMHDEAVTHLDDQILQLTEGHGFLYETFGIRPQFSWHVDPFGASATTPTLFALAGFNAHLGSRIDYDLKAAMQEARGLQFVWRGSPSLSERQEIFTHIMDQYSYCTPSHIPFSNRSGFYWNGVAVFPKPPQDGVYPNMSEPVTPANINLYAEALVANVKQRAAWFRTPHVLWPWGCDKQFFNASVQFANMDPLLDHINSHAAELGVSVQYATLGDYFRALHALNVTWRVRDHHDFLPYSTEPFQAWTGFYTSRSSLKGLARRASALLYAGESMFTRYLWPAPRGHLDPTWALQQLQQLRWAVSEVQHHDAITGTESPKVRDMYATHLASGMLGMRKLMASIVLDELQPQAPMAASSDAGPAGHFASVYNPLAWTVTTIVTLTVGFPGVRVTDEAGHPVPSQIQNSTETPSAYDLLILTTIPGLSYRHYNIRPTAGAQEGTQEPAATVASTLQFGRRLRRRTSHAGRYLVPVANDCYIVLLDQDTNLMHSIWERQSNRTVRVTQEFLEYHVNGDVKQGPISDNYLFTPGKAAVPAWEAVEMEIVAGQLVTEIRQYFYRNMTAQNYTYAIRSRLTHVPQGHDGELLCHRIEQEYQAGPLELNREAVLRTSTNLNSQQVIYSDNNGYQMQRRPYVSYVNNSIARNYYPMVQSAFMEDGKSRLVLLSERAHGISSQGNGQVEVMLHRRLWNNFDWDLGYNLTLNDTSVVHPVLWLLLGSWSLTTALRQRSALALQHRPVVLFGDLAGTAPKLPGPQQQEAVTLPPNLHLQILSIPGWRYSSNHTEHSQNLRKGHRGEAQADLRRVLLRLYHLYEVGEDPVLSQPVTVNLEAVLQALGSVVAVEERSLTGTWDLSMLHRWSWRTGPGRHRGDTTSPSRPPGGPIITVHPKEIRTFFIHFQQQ
UniProt Q7Z434: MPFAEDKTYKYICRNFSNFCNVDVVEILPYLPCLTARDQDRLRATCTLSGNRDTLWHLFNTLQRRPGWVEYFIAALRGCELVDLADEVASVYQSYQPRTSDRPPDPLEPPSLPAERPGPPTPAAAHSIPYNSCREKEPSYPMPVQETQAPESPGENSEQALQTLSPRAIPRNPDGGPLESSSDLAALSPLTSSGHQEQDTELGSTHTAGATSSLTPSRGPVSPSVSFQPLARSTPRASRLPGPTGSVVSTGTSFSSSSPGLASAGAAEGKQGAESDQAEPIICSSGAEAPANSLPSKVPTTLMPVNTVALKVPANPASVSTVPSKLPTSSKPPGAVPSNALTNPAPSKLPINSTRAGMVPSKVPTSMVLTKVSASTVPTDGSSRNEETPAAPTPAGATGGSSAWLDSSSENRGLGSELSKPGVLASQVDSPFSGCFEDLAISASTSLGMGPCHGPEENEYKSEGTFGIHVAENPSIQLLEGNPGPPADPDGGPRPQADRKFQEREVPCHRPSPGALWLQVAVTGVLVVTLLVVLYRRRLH
UniProt P09960: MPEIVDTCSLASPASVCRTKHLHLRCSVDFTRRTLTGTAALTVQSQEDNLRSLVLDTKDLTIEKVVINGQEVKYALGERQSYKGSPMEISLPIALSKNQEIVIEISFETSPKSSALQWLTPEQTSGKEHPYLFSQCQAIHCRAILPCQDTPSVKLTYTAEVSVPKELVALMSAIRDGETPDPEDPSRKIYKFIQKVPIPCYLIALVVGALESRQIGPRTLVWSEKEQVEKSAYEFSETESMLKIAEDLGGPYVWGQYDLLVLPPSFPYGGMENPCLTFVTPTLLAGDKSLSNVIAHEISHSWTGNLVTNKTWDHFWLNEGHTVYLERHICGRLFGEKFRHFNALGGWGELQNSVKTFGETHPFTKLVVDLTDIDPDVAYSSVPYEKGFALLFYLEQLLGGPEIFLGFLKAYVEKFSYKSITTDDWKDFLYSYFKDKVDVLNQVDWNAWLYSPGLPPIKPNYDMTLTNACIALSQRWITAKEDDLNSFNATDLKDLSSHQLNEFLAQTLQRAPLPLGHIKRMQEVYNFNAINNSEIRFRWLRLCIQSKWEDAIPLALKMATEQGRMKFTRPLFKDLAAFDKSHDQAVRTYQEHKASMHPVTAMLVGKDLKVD
UniProt Q12851: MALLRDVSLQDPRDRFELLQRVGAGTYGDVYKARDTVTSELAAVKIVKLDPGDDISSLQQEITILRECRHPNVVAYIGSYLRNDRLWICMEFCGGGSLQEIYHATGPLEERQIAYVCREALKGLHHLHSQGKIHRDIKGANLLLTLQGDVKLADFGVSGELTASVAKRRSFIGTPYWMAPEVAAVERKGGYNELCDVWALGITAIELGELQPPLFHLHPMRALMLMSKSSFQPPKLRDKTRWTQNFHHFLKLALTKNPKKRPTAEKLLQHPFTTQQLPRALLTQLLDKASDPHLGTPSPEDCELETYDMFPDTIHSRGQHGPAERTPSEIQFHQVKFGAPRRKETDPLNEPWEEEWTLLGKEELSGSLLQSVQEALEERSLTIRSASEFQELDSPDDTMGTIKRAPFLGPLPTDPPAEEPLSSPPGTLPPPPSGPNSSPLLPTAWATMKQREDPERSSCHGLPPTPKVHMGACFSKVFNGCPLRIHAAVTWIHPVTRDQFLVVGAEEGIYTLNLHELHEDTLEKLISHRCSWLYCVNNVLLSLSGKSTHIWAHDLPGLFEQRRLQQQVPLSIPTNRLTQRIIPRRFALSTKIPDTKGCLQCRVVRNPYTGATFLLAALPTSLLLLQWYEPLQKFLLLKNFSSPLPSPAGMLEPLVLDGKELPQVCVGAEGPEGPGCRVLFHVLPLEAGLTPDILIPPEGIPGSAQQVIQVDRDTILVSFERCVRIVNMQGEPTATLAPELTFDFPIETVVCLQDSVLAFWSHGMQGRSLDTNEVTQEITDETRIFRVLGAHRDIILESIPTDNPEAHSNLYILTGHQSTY
UniProt Q13164: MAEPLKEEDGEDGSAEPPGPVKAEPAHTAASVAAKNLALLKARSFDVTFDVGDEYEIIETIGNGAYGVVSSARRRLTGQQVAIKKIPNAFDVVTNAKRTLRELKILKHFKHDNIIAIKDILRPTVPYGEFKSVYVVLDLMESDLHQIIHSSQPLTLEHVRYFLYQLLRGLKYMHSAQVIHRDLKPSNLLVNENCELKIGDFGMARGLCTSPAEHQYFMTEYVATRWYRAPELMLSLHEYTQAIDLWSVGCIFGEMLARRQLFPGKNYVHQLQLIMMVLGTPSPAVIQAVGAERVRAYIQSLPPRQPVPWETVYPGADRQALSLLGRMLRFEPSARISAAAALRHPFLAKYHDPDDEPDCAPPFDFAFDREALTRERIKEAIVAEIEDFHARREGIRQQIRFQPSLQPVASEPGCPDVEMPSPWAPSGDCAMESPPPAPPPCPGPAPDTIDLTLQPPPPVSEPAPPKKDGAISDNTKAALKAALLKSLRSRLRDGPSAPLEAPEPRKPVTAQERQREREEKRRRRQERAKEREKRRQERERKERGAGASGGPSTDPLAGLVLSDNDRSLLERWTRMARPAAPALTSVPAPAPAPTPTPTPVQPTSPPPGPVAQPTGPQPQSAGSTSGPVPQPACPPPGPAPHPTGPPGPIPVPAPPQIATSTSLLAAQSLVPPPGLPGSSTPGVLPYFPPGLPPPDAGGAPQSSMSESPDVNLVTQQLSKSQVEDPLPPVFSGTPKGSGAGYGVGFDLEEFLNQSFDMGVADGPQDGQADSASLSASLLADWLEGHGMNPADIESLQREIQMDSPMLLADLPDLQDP
UniProt Q96GW9: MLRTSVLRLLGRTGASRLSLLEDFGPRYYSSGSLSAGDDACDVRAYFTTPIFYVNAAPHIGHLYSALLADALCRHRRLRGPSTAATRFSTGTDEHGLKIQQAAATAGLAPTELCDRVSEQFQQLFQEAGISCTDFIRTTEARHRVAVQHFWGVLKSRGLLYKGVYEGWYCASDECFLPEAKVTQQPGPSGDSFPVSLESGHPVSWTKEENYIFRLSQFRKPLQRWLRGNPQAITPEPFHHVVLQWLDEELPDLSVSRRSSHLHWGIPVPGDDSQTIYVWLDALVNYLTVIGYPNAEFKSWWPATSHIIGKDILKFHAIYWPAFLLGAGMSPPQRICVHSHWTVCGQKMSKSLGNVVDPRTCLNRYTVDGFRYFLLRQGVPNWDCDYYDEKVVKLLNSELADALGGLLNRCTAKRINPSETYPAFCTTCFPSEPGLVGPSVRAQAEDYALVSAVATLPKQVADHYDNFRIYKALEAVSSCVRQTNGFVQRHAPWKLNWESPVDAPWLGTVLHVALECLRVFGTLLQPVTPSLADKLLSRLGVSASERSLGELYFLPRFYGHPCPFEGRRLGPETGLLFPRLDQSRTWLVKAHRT
UniProt Q5U5X0: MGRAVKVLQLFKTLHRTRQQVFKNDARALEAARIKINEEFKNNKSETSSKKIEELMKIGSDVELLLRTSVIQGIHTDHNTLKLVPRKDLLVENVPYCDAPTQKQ

Some of the results follow.
These targets were tested with CC1Cc2ccccc2N1C(=O)C1CCCN(C1)C(=O)CCl (mixture of isomers) [TRIM25 ligand 11 (diastereomer mixture)] (assay: probe-labelled cysteine peptide fold change vs DMSO (competition) (log2 fold change); higher = less target engagement (more negative = stronger competition)). Settings: 10 µM; THP-1; incubation time: 4 h.
With “MAP4K4_O95819_269_FFSFIEGCLVK (UniProt O95819)” the “probe-labelled cysteine peptide fold change” value was 0.123.
“MAP3K2_Q9Y2U5_512_LQTICLSGTGMK (UniProt Q9Y2U5)” was tested, and the “probe-labelled cysteine peptide fold change” value was 0.0721.
In the case of “MACF1_Q9UPN3_5346_IAQLQEALLHCGK (UniProt Q9UPN3)”, the “probe-labelled cysteine peptide fold change” value is reported as 0.031.
For “MAN2B2_Q9Y2E5_288_TPHVLWPWGCDK (UniProt Q9Y2E5)”, the “probe-labelled cysteine peptide fold change” value was 0.0845.
With “MACF1_Q9UPN3_4206_FEQLCLQQQEK (UniProt Q9UPN3)” the “probe-labelled cysteine peptide fold change” value was -0.0528.
“MAPK9_P45984_222_GCVIFQGTDHIDQWNK (UniProt P45984)” was tested, and the “probe-labelled cysteine peptide fold change” value was -0.0623.
With “MAVS_Q7Z434_33_NFSNFCNVDVVEILPYLPCLTAR (UniProt Q7Z434)” the “probe-labelled cysteine peptide fold change” value was 0.142.
For “LTA4H_P09960_26_CSVDFTR (UniProt P09960)”, the “probe-labelled cysteine peptide fold change” value was -0.0535.
In the case of “MAP4K2_Q12851_473_VHMGACFSK (UniProt Q12851)”, the “probe-labelled cysteine peptide fold change” value is reported as -0.0544.
For “MAPK7_Q13164_359_YHDPDDEPDCAPPFDFAFDREALTR (UniProt Q13164)”, the “probe-labelled cysteine peptide fold change” value was -0.0308.
“LYAR_Q9NX58_6_VFFTCNACGESVK (UniProt Q9NX58)” was tested, and the “probe-labelled cysteine peptide fold change” value was -0.0304.
For “LYPLAL1_Q5VWZ2_174_SNGVLPELFQCHGTADELVLHSWAEETNSMLK (UniProt Q5VWZ2)”, the “probe-labelled cysteine peptide fold change” value was 0.366.
“MARS2_Q96GW9_336_ICVHSHWTVCGQK (UniProt Q96GW9)” was tested, and the “probe-labelled cysteine peptide fold change” value was 0.114.
For “MAT2A_P31153_104_TCNVLVALEQQSPDIAQGVHLDR (UniProt P31153)”, the “probe-labelled cysteine peptide fold change” value was 0.0363.
“LTA4H_P09960_147_AILPCQDTPSVK (UniProt P09960)” was tested, and the “probe-labelled cysteine peptide fold change” value was -0.0428.
In the case of “LYRM7_Q5U5X0_97_DLLVENVPYCDAPTQK (UniProt Q5U5X0)”, the “probe-labelled cysteine peptide fold change” value is reported as -0.0529.
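Note: competitive chemoproteomic profiling in live THP-1 cells with an iodoacetamide desthiobiotin (IA-DTB) probe, comparing probe-labelled peptide intensities in compound-treated cells against DMSO-treated controls.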
